pIC50: −log10 of the molar value.
How the values were obtained:
[1] = tested on: Raji; assay: Anti-proliferative activity, MTT reduction method; format: cell-based; conditions: Homo sapiens, mean of at least two experiments
[2] = tested on: Ramos; assay: Anti-proliferative activity, MTT reduction method; format: cell-based; conditions: Homo sapiens, mean of at least two experiments

pIC50 [1]: 6.01
pIC50 [2]: 6.28
Compound: O=C(CCCCCCC(=O)Nc1ccccc1)NO [SAHA, vorinostat, reference compound]
